Assay results as given in US20180207240A1.
These are yes or no findings as the source states them, for the method shown. Some entries that bind do so weakly or less than the wild type.

Protein sequences, listed by entry. Tags and fused reporters are not part of them. Lines headed by an entry give the natural chain unless they say otherwise; changes in a name come on top.
UniProt P02463: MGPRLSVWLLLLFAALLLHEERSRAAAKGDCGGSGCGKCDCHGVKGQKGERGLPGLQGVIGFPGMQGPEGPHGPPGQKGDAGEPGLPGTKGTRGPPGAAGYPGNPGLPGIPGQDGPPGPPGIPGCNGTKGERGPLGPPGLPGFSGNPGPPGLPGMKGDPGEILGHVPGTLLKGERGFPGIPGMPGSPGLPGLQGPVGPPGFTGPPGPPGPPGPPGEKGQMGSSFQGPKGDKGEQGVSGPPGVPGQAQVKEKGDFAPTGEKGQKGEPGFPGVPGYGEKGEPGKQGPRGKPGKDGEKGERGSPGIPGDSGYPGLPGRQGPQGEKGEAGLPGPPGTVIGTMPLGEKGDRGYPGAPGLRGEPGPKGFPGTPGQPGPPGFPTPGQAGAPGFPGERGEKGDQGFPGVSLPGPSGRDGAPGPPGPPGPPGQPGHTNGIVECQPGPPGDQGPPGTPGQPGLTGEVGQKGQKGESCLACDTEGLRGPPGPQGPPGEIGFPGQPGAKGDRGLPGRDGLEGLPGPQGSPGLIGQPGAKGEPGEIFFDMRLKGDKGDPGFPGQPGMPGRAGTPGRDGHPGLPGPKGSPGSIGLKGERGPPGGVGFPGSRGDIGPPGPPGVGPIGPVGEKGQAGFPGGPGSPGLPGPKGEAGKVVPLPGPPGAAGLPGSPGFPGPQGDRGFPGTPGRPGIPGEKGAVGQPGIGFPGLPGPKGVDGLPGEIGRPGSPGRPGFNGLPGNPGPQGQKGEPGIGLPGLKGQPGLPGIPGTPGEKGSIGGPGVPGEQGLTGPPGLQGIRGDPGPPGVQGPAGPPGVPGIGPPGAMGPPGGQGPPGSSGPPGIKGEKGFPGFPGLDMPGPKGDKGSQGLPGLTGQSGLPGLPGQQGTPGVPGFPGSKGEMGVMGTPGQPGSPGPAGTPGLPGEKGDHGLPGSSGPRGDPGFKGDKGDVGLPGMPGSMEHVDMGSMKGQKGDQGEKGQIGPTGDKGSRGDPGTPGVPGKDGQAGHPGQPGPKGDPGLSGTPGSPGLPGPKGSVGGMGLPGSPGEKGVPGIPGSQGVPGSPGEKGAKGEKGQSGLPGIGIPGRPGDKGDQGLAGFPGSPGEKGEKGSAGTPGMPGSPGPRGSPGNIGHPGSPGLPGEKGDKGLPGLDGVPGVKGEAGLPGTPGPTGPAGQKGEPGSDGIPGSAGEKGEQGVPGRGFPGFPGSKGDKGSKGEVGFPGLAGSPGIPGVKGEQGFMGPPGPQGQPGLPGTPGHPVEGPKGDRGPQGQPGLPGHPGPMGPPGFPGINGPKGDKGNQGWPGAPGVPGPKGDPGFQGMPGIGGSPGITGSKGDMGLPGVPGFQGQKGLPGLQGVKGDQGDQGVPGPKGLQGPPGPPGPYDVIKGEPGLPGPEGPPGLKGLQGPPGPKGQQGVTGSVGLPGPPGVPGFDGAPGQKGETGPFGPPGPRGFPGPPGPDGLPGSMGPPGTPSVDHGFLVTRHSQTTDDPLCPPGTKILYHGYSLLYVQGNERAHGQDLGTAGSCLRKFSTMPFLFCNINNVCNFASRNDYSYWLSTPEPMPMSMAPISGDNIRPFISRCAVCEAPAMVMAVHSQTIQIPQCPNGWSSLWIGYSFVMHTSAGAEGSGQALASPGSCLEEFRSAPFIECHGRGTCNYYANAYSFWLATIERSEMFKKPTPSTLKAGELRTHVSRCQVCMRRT
UniProt P08122: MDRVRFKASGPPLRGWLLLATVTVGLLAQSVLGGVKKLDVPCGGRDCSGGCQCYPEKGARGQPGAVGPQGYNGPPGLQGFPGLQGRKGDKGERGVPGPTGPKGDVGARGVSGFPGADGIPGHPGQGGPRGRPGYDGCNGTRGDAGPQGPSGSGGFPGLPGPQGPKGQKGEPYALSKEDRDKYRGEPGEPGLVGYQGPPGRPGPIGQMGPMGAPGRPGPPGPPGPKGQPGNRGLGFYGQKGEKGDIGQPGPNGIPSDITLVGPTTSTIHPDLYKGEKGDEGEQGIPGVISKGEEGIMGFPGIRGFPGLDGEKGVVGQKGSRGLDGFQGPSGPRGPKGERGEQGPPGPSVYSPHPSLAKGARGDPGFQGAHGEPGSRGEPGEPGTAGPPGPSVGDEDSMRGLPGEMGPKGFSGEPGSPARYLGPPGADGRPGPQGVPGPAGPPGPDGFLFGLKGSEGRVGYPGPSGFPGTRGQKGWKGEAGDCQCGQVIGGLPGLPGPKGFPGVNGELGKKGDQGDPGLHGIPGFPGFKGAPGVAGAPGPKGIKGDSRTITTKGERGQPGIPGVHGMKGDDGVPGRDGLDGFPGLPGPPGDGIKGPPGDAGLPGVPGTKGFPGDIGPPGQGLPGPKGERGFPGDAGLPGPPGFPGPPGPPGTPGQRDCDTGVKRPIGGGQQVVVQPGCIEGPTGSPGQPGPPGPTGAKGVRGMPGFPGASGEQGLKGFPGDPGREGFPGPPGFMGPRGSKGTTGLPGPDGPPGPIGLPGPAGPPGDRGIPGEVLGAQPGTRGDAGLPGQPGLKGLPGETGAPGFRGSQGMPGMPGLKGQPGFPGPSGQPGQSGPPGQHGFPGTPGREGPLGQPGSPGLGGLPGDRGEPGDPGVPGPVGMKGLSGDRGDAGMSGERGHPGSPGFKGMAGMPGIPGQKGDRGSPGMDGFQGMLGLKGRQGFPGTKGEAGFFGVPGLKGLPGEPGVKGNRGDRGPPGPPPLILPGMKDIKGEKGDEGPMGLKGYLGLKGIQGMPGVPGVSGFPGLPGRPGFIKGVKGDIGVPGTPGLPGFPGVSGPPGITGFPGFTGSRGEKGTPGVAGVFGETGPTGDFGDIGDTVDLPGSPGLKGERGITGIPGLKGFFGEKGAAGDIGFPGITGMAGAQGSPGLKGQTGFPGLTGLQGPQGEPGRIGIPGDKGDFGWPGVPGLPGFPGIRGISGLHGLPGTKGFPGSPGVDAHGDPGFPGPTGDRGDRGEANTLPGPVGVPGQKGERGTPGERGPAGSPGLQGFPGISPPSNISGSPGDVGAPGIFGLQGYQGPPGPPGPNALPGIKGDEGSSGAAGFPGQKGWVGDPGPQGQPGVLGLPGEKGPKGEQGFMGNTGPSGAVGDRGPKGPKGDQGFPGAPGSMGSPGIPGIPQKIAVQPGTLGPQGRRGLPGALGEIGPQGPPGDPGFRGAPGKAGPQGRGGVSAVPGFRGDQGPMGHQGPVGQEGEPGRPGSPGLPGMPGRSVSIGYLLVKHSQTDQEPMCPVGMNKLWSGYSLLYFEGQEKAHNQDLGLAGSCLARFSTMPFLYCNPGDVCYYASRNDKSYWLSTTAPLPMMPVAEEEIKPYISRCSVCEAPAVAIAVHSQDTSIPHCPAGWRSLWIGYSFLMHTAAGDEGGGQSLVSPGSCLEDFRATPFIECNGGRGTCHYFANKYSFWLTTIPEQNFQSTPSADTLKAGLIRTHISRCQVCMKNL

Target: Purified Col4 (α1(2)α2) proteins from mouse (Cat. No. sc-29010, Santa Cruz) (mouse) (UniProt P02463+P08122)
Test: denaturing and native PAGE of the preparation, self-association

binding: binds
Substance: Purified Col4 (α1(2)α2) proteins from mouse (Cat. No. sc-29010, Santa Cruz) (from UniProt P02463 28-1669; P08122 26-1707)
